Data: patent publication US20120294796A1 (MacroGenics, published 2012)
Results are given in words; binding and its absence hold for the method and conditions named. Some binding calls cover weakened binding; strength is not graded here.

What was measured:
[1] = target: T1, human B7-H3 (form not stated) (human) (UniProt Q5ZPR3); assay: relative binding to human B7-H3 (FIG. 13)
T1 sequence (looked up): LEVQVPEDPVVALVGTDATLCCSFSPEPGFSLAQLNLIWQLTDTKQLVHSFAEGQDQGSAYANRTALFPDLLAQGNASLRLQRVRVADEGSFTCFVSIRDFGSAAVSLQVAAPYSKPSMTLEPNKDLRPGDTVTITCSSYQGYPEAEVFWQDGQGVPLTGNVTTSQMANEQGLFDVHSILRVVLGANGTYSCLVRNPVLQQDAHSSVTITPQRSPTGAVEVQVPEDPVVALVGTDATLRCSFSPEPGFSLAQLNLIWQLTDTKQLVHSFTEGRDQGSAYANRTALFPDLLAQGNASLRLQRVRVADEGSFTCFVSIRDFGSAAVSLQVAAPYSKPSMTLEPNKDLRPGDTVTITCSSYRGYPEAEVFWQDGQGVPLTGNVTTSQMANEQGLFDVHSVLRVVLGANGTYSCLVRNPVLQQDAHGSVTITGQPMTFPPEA

[2] = target: T1, human B7-H3 (form not stated) (human); assay: BIACORE (grade, Table 21)
[3] = target: T1, human B7-H3 (form not stated) (human); assay: BIACORE / IHC summary
[4] = target: T1, human B7-H3 (form not stated) (human); assay: BIACORE, sequential binding after BRCA84D (FIG. 8)
[5] = target: T1, human B7-H3 (form not stated) (human); assay: summary of activities (Table 6)
[6] = target: T1, human B7-H3 (form not stated) (human); assay: Binding BIACORE (grade)
[7] = target: T1, human B7-H3 (form not stated) (human); assay: BIACORE analysis (grade)
[8] = target: T1, human B7-H3 (form not stated) (human); assay: BIACORE, sequential binding (FIG. 8)
[9] = target: T1, human B7-H3 (form not stated) (human); assay: relative binding to human B7-H3 (FIG. 12)

Measured: binding

B1: antibody containing hBRCA84D-5VL and hBRCA84D-2VH (antibody, V domains shown)
VH: EVQLVESGGGLVQPGGSLRLSCAASGFTFSSFGMHWVRQAPGKGLEWVAYISSDSSAIYYADTVKGRFTISRDNAKNSLYLQMNSLRDEDTAVYYCGRGRENIYYGSRLDYWGQGTTVTVSS
VL: DIQLTQSPSFLSASVGDRVTITCKASQNVDTNVAWYQQKPGQAPKALIYSASYRYSGVPSRFSGSGSGTDFTLTISSLQPEDFATYYCQQYNNYPFTFGQGTKLEIK
binds: [1]

B2: PRCA157 (antibody, IgG1, V domains shown)
VH: EVQQVESGGDLVKPGGSLKLSCAASGFTFSSYGMSWVRQTPDKRLEWVATINSGGSNTYYPDSLKGRFTISRDNAKNTLYLQMRSLKSEDTAMYYCARHDGGAMDYWGQGTSVTVSS
VL: DIQMTQSPASLSVSVGETVTITCRASESIYSYLAWYQQKQGKSPQLLVYNTKTLPEGVPSRFSGSGSGTQFSLKINSLQPEDFGRYYCQHHYGTPPWTFGGGTNLEIK
binds: [2] | [3] | [4]

B3: BRCA69D (antibody, IgG1, V domains shown)
VH: QVQLQQSGAELARPGASVKLSCKASGYTFTSYWMQWVKQRPGQGLEWIGTIYPGDGDTRYTQKFKGKATLTADKSSSTAYMQLSSLASEDSAVYYCARRGIPRLWYFDVWGAGTTVTVSS
VL: DIQMTQTTSSLSASLGDRVTISCRASQDISNYLNWYQQKPDGTVKLLIYYTSRLHSGVPSRFSGSGSGTDYSLTIDNLEQEDIATYFCQQGNTLPPTFGGGTKLEIK
notes: also called BRCA69A (probable misprint)
binds: [5] | [6] | [2] | [3] | [7] | [4]

B4: BRCA84D (antibody, IgG1, V domains shown)
VH: DVQLVESGGGLVQPGGSRKLSCAASGFTFSSFGMHWVRQAPEKGLEWVAYISSDSSAIYYADTVKGRFTISRDNPKNTLFLQMTSLRSEDTAMYYCGRGRENIYYGSRLDYWGQGTTLTVSS
VL: DIAMTQSQKFMSTSVGDRVSVTCKASQNVDTNVAWYQQKPGQSPKALIYSASYRYSGVPDRFTGSGSGTDFTLTINNVQSEDLAEYFCQQYNNYPFTFGSGTKLEIK
binds: [5] | [8] | [6] | [2] | [3] | [7]

B5: antibody containing hBRCA84D-5VL and chimeric BRCA84D heavy chain (antibody, V domains shown)
VH: B4 VH
VL: B1 VL
binds: [9]
